This is an account of results in US8415299B2, “Methods for improved avian performance” (priority 2004, dated 2013).

SMILES strings stand for the structures. Like-named read-outs stand apart in the source and are kept apart here. The source gives many values for each of these; only a part stands here.

For the experiment, the system named is Cobb broiler breeder hens and roosters. Type of experiment: in vivo.

As to `N[C@@H](Cc1cc(I)c(Oc2cc(I)c(O)c(I)c2)c(I)c1)C(=O)O` [L-thyroxine, 3,5,3′,5′-tetraiodothyronine], the “# Eggs per pen” value was found to be 0 (25 ppm feed from 22-Sep, pen 50, 5-Nov); 0 (25 ppm feed from 22-Sep, pen 50, 6-Nov); 0 (25 ppm feed from 22-Sep, pen 50, 7-Nov); 20 (25 ppm feed from 22-Sep, pen 50, 13-Sep); 16 (25 ppm feed from 22-Sep, pen 50, 14-Sep); 11 (25 ppm feed from 22-Sep, pen 50, 15-Sep). Further, the “# Eggs per pen” value (40 ppm feed from 22-Sep, pen 51, 5-Nov) came to 5; the “# Eggs per pen” value (40 ppm feed from 22-Sep, pen 51, 6-Nov) is 4; the “# Eggs per pen” value (40 ppm feed from 22-Sep, pen 51, 7-Nov) was determined as 4; the “# Eggs per pen” value (40 ppm feed from 22-Sep, pen 51, 13-Sep) was 16; the “# Eggs per pen” value (40 ppm feed from 22-Sep, pen 51, 14-Sep) is listed as 21; the “# Eggs per pen” value (40 ppm feed from 22-Sep, pen 51, 15-Sep) is listed as 15.
